Measured values from publication PMC5402979, “Tissue-specific enhancer repression through molecular integration of cell signaling inputs”.
Results are given in words; binding and its absence hold for the method and conditions named. In cells and extracts the contact can be indirect.

Protein sequences, listed by entry. Tags and fused reporters are not part of them. Residues count along the entry.
UniProt P20009, residues 120-188: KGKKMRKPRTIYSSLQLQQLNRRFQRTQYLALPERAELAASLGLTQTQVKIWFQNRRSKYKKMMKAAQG
UniProt Q06453, residues 86-156: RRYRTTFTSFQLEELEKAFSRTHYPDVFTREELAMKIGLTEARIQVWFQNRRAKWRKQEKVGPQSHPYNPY

Target: GST-Dll^HD (Distal-less homeodomain, GST fusion) (D. melanogaster) (UniProt P20009)
Assay: pull-down; purified GST-HD fusion as bait, ^35S-labelled in vitro translated homeodomain (rabbit reticulocyte TNT) as prey; done in duplicate, as described in ref. 38; only the target purified

## in vitro translated Al homeodomain (amino acids 86-156) (from UniProt Q06453 86-156) (domain or fragment)
  binding: no binding
